No constants are given. Whether binding was seen depends on the method and setting. Binding seen in cells or lysates may run through a third protein. Some binding calls cover weakened binding; strength is not graded here.
B1: Betaine-homocysteine S-methyltransferase 1 (enzyme, UniProt O09171 1-407)
chain: MAPIAGKKAKRGILERLNAGEVVIGDGGFVFALEKRGYVKAGPWTPEAAVEHPEAVRQLHREFLRAGSNVMQTFTFYASEDKLENRGNYVAEKISGQKVNEAACDIARQVADEGDALVAGGVSQTPSYLSCKSETEVKKIFHQQLEVFMKKNVDFLIAEYFEHVEEAVWAVEALKTSGKPIAATMCIGPEGDLHGVSPGECAVRLVKAGAAIVGVNCHFDPSTSLQTIKLMKEGLEAARLKAYLMSHALAYHTPDCGKQGFIDLPEFPFGLEPRVATRWDIQKYAREAYNLGVRYIGGCCGFEPYHIRAIAEELAPERGFLPPASEKHGSWGSGLDMHTKPWIRARARKEYWQNLRIASGRPYNPSMSKPDAWGVTKGAAELMQQKEATTEQQLRALFEKQKFKSAQ

Chains of the proteins cited; added tags and fusions are not shown.
UniProt P63159: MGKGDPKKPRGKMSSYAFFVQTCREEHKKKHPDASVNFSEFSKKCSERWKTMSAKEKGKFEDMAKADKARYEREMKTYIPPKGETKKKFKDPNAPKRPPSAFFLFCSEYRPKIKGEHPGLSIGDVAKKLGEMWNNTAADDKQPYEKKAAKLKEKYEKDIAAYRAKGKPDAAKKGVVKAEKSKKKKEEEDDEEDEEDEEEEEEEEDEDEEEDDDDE
UniProt P18757: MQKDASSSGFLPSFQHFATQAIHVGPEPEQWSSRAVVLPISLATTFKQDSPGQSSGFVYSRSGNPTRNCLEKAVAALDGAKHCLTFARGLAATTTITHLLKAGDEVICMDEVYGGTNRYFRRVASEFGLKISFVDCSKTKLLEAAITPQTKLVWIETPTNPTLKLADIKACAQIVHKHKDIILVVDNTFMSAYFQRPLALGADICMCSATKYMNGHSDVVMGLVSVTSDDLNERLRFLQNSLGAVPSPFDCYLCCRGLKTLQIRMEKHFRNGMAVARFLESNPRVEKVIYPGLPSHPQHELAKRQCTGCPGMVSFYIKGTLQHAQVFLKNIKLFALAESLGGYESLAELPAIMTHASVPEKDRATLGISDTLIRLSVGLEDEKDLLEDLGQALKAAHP

Target: High-mobility group box 1 (cytoplasmic) (rat (endogenous in Lewis rat liver)) (UniProt P63159)
Assay: co-IP; co-IP of rat liver cytoplasmic extracts (WI/R and normal) with anti-HMGB1 (N-terminal) or anti-HMGB1 (C-terminal), rabbit IgG as control antibody; eluates probed by Western blot for the candidate proteins

| Molecule | binding |
| --- | --- |
| Cystathionine γ-lyase (from UniProt P18757 1-398) (enzyme) | binds |
| B1 | binds |

— paper PMC5297800
